In PubChem BioAssay AID1794845 (National Center for Advancing Translational Sciences (NCATS), 2023):
Fewer than 10 of roughly 6,900 compounds were called active. Calls follow the shape of the dose curve; as a rule, active = well fitted curve in the direction sought with a large enough effect; inconclusive = small, poorly fitted or top-dose-only effect, or another doubt; inactive = no such curve, though single readings can be large or run the other way. The list shows a part of the results.

Protein sequences, listed by entry. Tags and fused reporters are not part of them. Lines headed by an entry give the natural chain unless they say otherwise; changes in a name come on top.
UniProt C7C422: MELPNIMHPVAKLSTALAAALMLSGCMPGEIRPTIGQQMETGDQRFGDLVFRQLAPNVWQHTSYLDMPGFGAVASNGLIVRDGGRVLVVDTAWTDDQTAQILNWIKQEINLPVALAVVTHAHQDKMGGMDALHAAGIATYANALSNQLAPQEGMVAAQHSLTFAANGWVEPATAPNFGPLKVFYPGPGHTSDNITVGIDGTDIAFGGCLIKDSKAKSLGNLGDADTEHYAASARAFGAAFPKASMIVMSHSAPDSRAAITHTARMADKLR

These molecules were tested against Metallo-beta-lactamase type 2 (Klebsiella pneumoniae) (UniProt C7C422) (assay: qHTS to identify inhibitors of the New Delhi Metallo-beta-lactamase (NDM): primary screen against the NCATS Gemini Collection). Conditions: NDM-1 enzyme, meropenem hydrolysis, absorbance 300 nm; at 38.4 µM (top of the series) unless noted.
In short: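 NDM-1 at 2 nM final in 50 mM HEPES pH 7.0, 1 uM ZnSO4, 0.01% Tween20, preincubated >30 min with compound. Meropenem 50 uM final added; absorbance at 300 nm after 30 min.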
Also: % of control where 0% means no effect.

Activity % (negative = inhibition), inactive:
Cc1ccc(C(=O)N2CCC(C(=O)N3CCCCCCNC(=O)CC3)CC2)s1 0.335%
Cc1noc([C@@H]2CN(Cc3ccc[nH]3)C[C@H]2CO)n1 10.5%
O=C(c1ccc(-c2ccc(O)cc2)cc1)N1CCOC2(CNCCOC2)C1 (stereo not given) 3.21%
COCCCNC(=O)C(NC(=O)C1CC1)C1CCN(C(=O)c2ccc(C)cc2)CC1 (stereo not given) 34.1%
c1ccc(OCCNc2nc(-c3cccnc3)nc3c2CCNCC3)cc1 -0.698%
COc1ccc(OC2CCN(C(C)=O)CC2)c(C(=O)NCCc2ccccc2OC)c1 -0.467%
O=C(c1ccoc1)N1CCC(Cc2nc(C3CC3)n[nH]2)C1 (stereo not given) -1.2%
COc1ccc(C(=O)N2CCC3(CC2)OCC(C(=O)NC2CC2)N3C(=O)c2cccc(C)c2)cc1 (stereo not given) 15.3%
COc1ccc(N2CCN(C(=O)COc3cccc(-c4nnc5n4CCCC5)c3)CC2)cc1 4.75%
CN1CC(=O)N(C2CCNC2)Cc2c(NCCc3cccc(F)c3)ncnc21 (stereo not given) 18.3%
O=C(O)C[C@@H]1CCN(C(=O)c2ccco2)C[C@@H]1CCN1CCOCC1 -0.225% [at 57.5 µM]
COc1cccc(CNC(=O)C2CN(c3ccc(F)cc3)C(=O)N2)c1 (stereo not given) 0.276%
CNC(=O)Cn1nc(C(=O)N2CCC3(CC2)[C@H](O)C[C@@H]3O)cc1C 4.84%
CC(C)c1ccc(CN2CCCC3(CCN(S(C)(=O)=O)C3)C2=O)cc1 (stereo not given) 13.2%
C=CCOc1c(OC)ccc2c1CN(Cc1ccco1)C(=O)CCN2CC(O)COCc1ccco1 (stereo not given) -5.22%
O=C1Nc2ccccc2C(=O)N2CC[C@H](NS(=O)(=O)c3cccs3)[C@@H]12 16.5% [at 57.5 µM]
NC(=O)c1ccccc1OC[C@@H]1CCCN2CCCC[C@H]12 8.59%
O=C(NC1CC1)c1cc2n(n1)CCCN(C(=O)c1ccccc1-c1ccccc1)C2 -3.19%
COc1ccc(C(=O)N[C@@H]2CCC[C@@H]2C(=O)NCc2ccc(C)o2)cn1 -0.106%
CN(Cc1ncc[nH]1)C(=O)C1CCC(=O)N(CCc2ccccn2)C1 (stereo not given) 53.9%
CC1CCCN(c2ncnc3c2CN(c2cccnc2)C(=O)CN3C)C1 (stereo not given) 4.35%
CCc1cc(C(=O)N2CCOCC2CC(=O)N2CCSCC2)cs1 (stereo not given) -1.86%
COCC(=O)N1CCC(Oc2ccccc2C(=O)N2CCN(c3ccccn3)CC2)CC1 7.46%
CNC(=O)c1cccc(S(=O)(=O)NC2CCCN(C3CCCCCC3)C2)c1 (stereo not given) 13%
CCc1cc(=O)n(CC(=O)N2CCN(c3ccccc3OC)CC2)c(-c2ccccc2)n1 -0.786%
CN1C[C@H](O)C[C@H]1c1nnc2n1CCN(C(=O)c1cccnc1)CC2 0.953%
Cn1c(Cn2ccnc2)nnc1C1CCCN(CCOCc2ccccc2)C1 (stereo not given) 36.4%
COc1ccc(C(=O)NC[C@H]2O[C@@H](CC(=O)Nc3ccccc3)[C@H](O)[C@@H]2O)cc1 -1.83% [at 57.5 µM]
COc1ccc(CC(=O)N2CC[C@@H](CC(=O)O)[C@@H](CCN(C)c3ccccc3)C2)cc1 43.7% [at 57.5 µM]
CNC(=O)c1cc(C2CC2)nc2c1c(C1CCCN1C(=O)c1ccc(C(F)(F)F)cc1)nn2C (stereo not given) 3.13%
CN1CC(C(=O)N2CCN(Cc3ccccc3)CC2)NC1=O (stereo not given) 4.15% [at 57.5 µM]
C[C@]1(CO)[C@H]2Cc3sc(-c4ccsc4)nc3[C@@H](CC(=O)Nc3cccc(O)c3)[C@]2(C)CC[C@H]1O 10.8%
O=C(N[C@H]1CO[C@H]2[C@@H]1OC[C@@H]2Nc1nccc(-c2ccc(-c3ccccc3)cc2)n1)C1CCCCC1 33.3%
COc1ccc(NC(=O)N2CC(N(CC(C)C)C3CCOCC3)C2)cc1F 0.874%
COc1ccc(-c2ccc(NC(=O)C3CCCC3)cc2)nn1 10.9% [at 57.5 µM]
COc1ccc(CN2CCCC(CNC(=O)NC(C)C)C2)cc1O (stereo not given) -3.37%
O=C([C@@H]1CNC[C@H](C(=O)N2CCN(c3ccncc3)CC2)C1)N1CCOCC1 14.4%
OC[C@@H]1CNC[C@H]1C1CCN(C2CNC2)CC1 38.8%
COCC(=O)N1CCN(CC(=O)NCc2cccs2)[C@H]2CS(=O)(=O)C[C@H]21 2.71%
Cc1nn(C)c(C)c1CN(Cc1ccnc2ccccc12)C1CC1 5.38%
Cc1nc2c(c(-c3ccc(Cl)cc3)n1)CCN(C(=O)N(C)C)CC2 17.6%
O=C(C[C@@H]1CCNC[C@@H]1Cc1cc(CN2CCCCC2)on1)N1CCN(c2ccccc2)CC1 8.74%
O=[S+]([O-])(c1cccs1)N1CCn2c(nnc2C2CC2)C1 7.72% [at 57.5 µM]
O=C(Cn1cccc1-c1nc(-c2ccccc2)no1)N1CCc2ccccc21 0.577%
O=C(CC(c1ccccc1)c1ccccc1Cl)N1CCOCC1 (stereo not given) 0.0971%
Cc1ccccc1N(C)C1CN([S+](=O)([O-])c2ccccc2)C1 -11.3%
COc1ccc(-c2cnc(NC(=O)Cc3ccc(F)cc3)c3c2CCO3)cn1 15.6% [at 57.5 µM]
Cc1ncsc1CCC(=O)N1CC[C@@H]2[C@@H](CCC(=O)N2CCN)C1 5.84%
O=C(C1CCCN([S+](=O)([O-])c2cccs2)C1)N1CCC(c2nc3ncccc3[nH]2)CC1 (stereo not given) 1.08%
COCCNS(=O)(=O)c1cc(C(=O)O)cc(-c2ccncc2)c1 5.26%
COc1ccccc1C(CC(=O)NCC(C)C)c1cn(C)c2ccccc12 (stereo not given) 5.61%
Cc1nn(C)cc1CN(C)C(=O)c1cc2cn(C(C)C)cc2s1 2.7%
COc1ccc(-c2cc3nc4c(c(=O)n3[nH]2)CN(S(=O)(=O)c2cccs2)CC4)cc1 19.4%
Cc1noc(C)c1S(=O)(=O)N1CCC2(C1)C(=O)N(c1ccccc1)c1ccccc12 (stereo not given) -3.2%
Cc1nc(C)c(C(=O)N2CCC3(CC2)NC(=O)CC3C(=O)O)s1 (stereo not given) 0.0592%
COc1cc(CNC(=O)c2nc(C(O)c3ccccn3)oc2C)cc(OC)c1 (stereo not given) 48.7% [at 57.5 µM]
Cc1cc(Cl)ccc1OCC(=O)N[C@@H]1CCOC[C@H]1OCC(=O)O 12.4%
CCN(CC)c1cc(CCC(=O)NCc2cc(F)ccc2F)ccn1 4.01%
CCN(CC)c1cc(CCC(=O)N2CCC(C)CC2)ccn1 12%
CN(CCCNC(=O)C1(CCO)CC12CCOCC2)C1CCCCC1 (stereo not given) 4.09%
Cc1cnc(C(=O)NC2C[C@H]3CC[C@@H](C2)N3S(=O)(=O)c2ccc(C)c(F)c2)cn1 (stereo not given in full) 10%
CC(=O)Nc1ccc(CN2CC(Oc3ccc4c(c3)OCO4)C2)cc1 4.48%
C=CCOc1c(OC)ccc2c1CN(Cc1ccccc1)C(=O)CCN2CC(O)COc1ccc(OC)cc1 (stereo not given) -0.982%
O=C(C1CCCN1[S+](=O)([O-])c1cccc(C(F)(F)F)c1)N1CCC(N2Cc3cccn3C2=O)CC1 (stereo not given) 7.5%
CCS(=O)(=O)N1CCC(CCOC)(NC(=O)C2CC2)CC1 9.08%
Cc1cc(CN2CCc3nn(C)c(=O)n3CC2)n(C)n1 0.0396%
COCCC1(NC(=O)c2ccccc2)CCN(C(=O)c2ocnc2C)CC1 -2.57%
O=C(c1ccc2c(c1)OCCO2)N1CCc2[nH]nc(-c3ccccc3F)c2C1 1.12%
CC(C)c1ccc(CC(=O)N2CCCc3ncc(C(=O)NCCc4c[nH]c5ccccc45)cc32)cc1 13.3%
CCN(CC)Cc1cc(C2CC(=O)Nc3n[nH]c(C(=O)O)c32)ccc1OC (stereo not given) -4.59%
C=CCCC(=O)N1CCOc2c(O)cc(-c3nc4ccccc4s3)cc2C1 8.94%
COc1ccccc1C(=O)N1CCC(Cc2nncn2-c2ccccc2)CC1 14.6%
CN1CCN(C(=O)c2cc(C3CC3)[nH]n2)CC12CCNC(=O)CC2 (stereo not given) 22.2%
CCN1c2cc(C(=O)Nc3cccc(F)c3)ccc2C(=O)N2CCCC21 (stereo not given) 54.4%
CNC(=O)c1cc(C)nc2onc(C3CCCN(C(=O)Cc4ccc(OC)cc4)C3)c12 (stereo not given) 14.1%
O=C(NCc1ccon1)C1CCCN(C2CCN(c3nc4ccccc4o3)CC2)C1 (stereo not given) -11.1%
Cc1ccc(NC(=O)CCNc2c(C)nc3cnccn23)c(F)c1 0.642%
CC(=O)NCC(=O)N1Cc2ccccc2CC2(CCN(CC3CCCCC3)C2)C1 (stereo not given) -4.27%
CC(C)C(=O)N1CCC(CCOc2ccc(F)cc2)C1 (stereo not given) -8.63%
COCCCN1CC2(CCC1=O)CCN(C(=O)Nc1ccccc1F)CC2 -0.277%
Cn1cccc1CN1CCC2(CC1)COc1ccccc1[S+](=O)([O-])N2 3.93%
CCOC(=O)C1(Cc2ccccc2F)CCCN(C(=O)c2ccc3c(c2)OCCO3)C1 (stereo not given) -0.209%
COc1cncc(Nc2cnc3ccc(N(C)Cc4ccc(F)cc4)nn23)c1 28.1% [at 57.5 µM]
COc1cc(C(=O)N2CCC(Cc3nc(C(C)C)no3)CC2)cc(OC)c1OC -1.34%
CNC(=O)N1CCC(C2CCN(C(=O)c3cccs3)C2)CC1 (stereo not given) -2.22%

Arranged by molar mass (descending): part of the list above
Activity % (negative = inhibition), inactive:
Cc1cnc(C(=O)NC2C[C@H]3CC[C@@H](C2)N3S(=O)(=O)c2ccc(C)c(F)c2)cn1 (stereo not given in full) 10%
CCc1cc(C(=O)N2CCOCC2CC(=O)N2CCSCC2)cs1 (stereo not given) -1.86%
CC(=O)Nc1ccc(CN2CC(Oc3ccc4c(c3)OCO4)C2)cc1 4.48%
CN1CCN(C(=O)c2cc(C3CC3)[nH]n2)CC12CCNC(=O)CC2 (stereo not given) 22.2%
OC[C@@H]1CNC[C@H]1C1CCN(C2CNC2)CC1 38.8%
